The source of these data is PMC10066190.

The chains behind the UniProt entries cited, without tags or fusion partners.
UniProt Q12888: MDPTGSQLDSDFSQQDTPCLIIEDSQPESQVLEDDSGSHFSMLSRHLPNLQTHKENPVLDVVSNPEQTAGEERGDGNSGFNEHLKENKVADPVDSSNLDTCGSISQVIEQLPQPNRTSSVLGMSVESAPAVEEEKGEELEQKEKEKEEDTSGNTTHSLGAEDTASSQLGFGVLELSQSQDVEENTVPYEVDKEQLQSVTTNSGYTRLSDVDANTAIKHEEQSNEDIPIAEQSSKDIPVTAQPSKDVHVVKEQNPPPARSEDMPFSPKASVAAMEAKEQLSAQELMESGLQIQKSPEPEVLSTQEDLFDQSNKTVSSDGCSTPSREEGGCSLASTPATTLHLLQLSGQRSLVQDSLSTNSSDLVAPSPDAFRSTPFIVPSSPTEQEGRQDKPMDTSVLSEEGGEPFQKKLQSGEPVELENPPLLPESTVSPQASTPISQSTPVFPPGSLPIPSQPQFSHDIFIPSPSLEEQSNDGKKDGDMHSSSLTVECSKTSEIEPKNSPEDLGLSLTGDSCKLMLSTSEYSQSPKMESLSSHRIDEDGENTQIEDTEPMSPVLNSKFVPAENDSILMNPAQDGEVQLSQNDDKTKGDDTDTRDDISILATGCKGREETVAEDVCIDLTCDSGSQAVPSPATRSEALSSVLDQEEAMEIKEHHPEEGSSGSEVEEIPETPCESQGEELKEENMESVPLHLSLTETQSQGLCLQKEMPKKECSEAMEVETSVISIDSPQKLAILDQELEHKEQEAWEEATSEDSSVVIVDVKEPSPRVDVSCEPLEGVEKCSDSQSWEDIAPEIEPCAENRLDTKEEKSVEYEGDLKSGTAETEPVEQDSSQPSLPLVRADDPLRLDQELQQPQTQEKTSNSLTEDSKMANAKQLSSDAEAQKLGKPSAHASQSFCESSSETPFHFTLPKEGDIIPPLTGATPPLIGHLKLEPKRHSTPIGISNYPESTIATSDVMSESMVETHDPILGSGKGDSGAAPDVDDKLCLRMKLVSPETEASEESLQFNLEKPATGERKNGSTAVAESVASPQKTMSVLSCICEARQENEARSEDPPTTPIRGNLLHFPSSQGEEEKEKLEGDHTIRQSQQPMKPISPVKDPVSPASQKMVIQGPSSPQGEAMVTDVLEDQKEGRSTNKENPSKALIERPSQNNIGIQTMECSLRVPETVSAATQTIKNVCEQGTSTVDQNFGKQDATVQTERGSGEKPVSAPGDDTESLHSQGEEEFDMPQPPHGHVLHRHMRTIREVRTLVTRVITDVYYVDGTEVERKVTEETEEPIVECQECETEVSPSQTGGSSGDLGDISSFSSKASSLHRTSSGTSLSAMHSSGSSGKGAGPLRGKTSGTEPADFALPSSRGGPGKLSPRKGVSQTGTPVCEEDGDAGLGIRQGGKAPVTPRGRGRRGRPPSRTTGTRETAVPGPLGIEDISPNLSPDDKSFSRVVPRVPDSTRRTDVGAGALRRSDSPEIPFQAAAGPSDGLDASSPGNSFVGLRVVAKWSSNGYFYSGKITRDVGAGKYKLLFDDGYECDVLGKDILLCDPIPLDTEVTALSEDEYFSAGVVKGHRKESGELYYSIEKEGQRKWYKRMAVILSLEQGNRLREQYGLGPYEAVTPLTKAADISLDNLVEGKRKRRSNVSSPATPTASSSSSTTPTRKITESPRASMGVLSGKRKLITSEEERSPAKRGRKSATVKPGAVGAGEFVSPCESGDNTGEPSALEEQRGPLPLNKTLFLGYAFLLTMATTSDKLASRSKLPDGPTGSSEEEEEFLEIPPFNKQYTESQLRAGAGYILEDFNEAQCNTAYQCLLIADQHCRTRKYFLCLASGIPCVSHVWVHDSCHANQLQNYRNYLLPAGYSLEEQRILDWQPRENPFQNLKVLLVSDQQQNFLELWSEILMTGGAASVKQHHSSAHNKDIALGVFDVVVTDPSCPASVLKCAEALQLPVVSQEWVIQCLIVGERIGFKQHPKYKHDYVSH

In the experiment the target is 53BP1 in 293T cells (co-IP with ectopic TRABID) (UniProt Q12888). Description: co-IP; 293T cells transfected with the indicated plasmids (Fig. 2a with or without IR for 1 h); lysis in IP buffer (50 mM Tris-HCl pH 7.4, 150 mM NaCl, 1% Triton X-100, 1% sodium deoxycholate); primary antibody and protein A/G agarose overnight at 4 °C; western blot.

Results are given in words; binding and its absence hold for the method and conditions named. Binding seen in cells or lysates may run through a third protein. Some entries that bind do so weakly or less than the wild type. Tags and fused reporters may be left off the sequences shown.

B1: TRABID OTU domain (residues 340 to 708), Myc-tagged truncated mutant (domain or fragment, UniProt Q9UGI0 340-708)
chain: AKCIPAMVCPELTEQIRREIAASLHQRKGDFACYFLTDLVTFTLPADIEDLPPTVQEKLFDEVLDRDVQKELEEESPIINWSLELATRLDSRLYALWNRTAGDCLLDSVLQATWGIYDKDSVLRKALHDSLHDCSHWFYTRWKDWESWYSQSFGLHFSLREEQWQEDWAFILSLASQPGASLEQTHIFVLAHILRRPIIVYGVKYYKSFRGETLGYTRFQGVYLPLLWEQSFCWKSPIALGYTRGHFSALVAMENDGYGNRGAGANLNTDDDVTITFLPLVDSERKLLHVHFLSAQELGNEEQQEKLLREWLDCCVTEGGVLVAMQKSSRRRNHPLVTQMVEKWLDRYRQIRPCTSLSDGEEDEDDEDE
As for B1, the binding result was “binds”.
